We go through two substances from PMC11018632, “The CB1 receptor interacts with cereblon and drives cereblon deficiency-associated memory shortfalls” (EMBO Molecular Medicine, 2024).

By UniProt entry, the sequences of proteins in these tests, tags left out. Where a name states a change or a piece, a line headed by the entry shows the natural chain unless it says otherwise.
UniProt Q96SW2: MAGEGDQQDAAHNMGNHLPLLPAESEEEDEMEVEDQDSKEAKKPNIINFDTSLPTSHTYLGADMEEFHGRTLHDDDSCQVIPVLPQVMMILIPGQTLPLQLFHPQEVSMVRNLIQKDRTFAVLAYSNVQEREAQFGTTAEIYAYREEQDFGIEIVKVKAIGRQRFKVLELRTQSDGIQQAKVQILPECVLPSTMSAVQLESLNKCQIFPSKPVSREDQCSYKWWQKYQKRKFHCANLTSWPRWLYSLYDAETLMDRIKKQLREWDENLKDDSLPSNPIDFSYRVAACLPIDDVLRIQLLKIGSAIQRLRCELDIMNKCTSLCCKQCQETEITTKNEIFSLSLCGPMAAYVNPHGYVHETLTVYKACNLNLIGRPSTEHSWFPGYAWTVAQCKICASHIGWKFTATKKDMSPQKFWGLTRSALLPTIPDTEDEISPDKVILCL
UniProt P21554: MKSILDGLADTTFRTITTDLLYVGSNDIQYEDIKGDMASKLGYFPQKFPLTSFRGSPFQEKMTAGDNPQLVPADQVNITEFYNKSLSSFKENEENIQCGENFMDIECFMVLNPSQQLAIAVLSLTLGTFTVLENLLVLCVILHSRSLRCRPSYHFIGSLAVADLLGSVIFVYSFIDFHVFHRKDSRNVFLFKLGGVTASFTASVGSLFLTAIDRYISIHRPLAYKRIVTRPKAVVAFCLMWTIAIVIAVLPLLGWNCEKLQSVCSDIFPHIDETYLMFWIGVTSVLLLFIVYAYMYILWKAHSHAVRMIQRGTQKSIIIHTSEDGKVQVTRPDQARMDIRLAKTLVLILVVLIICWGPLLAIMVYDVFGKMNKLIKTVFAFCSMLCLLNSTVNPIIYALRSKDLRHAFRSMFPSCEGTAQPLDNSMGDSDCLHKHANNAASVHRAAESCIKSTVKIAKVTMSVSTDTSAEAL
UniProt Q13619: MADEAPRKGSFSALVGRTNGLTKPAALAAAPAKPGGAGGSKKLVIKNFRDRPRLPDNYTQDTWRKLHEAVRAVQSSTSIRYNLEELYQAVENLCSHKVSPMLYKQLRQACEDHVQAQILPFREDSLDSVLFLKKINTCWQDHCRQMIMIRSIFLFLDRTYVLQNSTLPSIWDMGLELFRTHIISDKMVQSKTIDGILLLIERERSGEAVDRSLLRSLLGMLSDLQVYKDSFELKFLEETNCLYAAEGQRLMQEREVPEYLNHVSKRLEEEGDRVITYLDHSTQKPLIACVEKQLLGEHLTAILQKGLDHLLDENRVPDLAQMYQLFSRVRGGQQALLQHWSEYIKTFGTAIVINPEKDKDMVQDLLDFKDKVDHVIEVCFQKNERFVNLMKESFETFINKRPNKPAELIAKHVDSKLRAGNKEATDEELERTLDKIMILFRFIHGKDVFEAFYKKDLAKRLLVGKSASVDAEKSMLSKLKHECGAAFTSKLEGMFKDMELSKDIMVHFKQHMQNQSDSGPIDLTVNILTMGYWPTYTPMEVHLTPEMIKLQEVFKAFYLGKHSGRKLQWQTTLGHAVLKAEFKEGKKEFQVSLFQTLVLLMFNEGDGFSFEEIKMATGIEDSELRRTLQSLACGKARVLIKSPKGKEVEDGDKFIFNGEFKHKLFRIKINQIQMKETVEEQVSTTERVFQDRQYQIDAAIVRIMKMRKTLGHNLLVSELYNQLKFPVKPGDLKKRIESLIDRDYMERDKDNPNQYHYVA

No constants are given. Whether binding was seen depends on the method and setting. In cells and extracts the contact can be indirect. For some assays here: A result given as binding can be weak or reduced; the word gives no strength.

Test [1] concerns the target human HA-CRBN-ΔRGS (human) (UniProt Q96SW2). Kind of test: co-IP; HEK-293T cells, transfected; lysates in GST buffer (50 mM Tris-HCl, 10% glycerol, 100 mM NaCl, 2 mM MgCl2, 1% NP-40, pH 7.4); IP with anti-HA agarose.
In test [2] the target is human 3xFLAG-CB1R (human) (UniProt P21554). In words: co-IP; HEK-293T cells, transfected; lysates in GST buffer (50 mM Tris-HCl, 10% glycerol, 100 mM NaCl, 2 mM MgCl2, 1% NP-40, pH 7.4); IP with anti-FLAG M2 agarose.

For “V5-tagged human Cullin-4a (from UniProt Q13619 1-759)”, in test [1], the binding result is given as “no binding”.

Regarding “human HA-CRBN-ΔRGS (from UniProt Q96SW2)”, in test [2], the binding entry is on record as “binds”.
